# In PubChem BioAssay AID1117319 (Southern Research Institute, 2015):
# Chains of the proteins cited; added tags and fusions are not shown. Lines headed by an entry give the natural chain unless they say otherwise; changes in a name come on top.
# UniProt P69720: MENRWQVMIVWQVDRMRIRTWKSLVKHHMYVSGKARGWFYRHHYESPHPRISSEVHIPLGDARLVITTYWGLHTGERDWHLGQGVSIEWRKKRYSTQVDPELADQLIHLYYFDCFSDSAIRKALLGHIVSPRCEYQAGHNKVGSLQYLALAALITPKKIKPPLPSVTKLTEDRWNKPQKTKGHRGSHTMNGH
# UniProt P69721: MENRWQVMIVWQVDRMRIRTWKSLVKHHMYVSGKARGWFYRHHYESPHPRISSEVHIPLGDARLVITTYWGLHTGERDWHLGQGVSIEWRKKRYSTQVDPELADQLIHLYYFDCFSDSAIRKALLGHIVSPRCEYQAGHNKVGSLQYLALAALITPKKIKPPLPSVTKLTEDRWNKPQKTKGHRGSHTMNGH
# UniProt P69722: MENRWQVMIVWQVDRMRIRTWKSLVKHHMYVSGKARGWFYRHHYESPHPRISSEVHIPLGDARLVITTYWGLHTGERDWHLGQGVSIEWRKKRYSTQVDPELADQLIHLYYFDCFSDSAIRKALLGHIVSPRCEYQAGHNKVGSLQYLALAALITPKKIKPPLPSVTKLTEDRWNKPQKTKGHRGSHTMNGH
# UniProt P69723: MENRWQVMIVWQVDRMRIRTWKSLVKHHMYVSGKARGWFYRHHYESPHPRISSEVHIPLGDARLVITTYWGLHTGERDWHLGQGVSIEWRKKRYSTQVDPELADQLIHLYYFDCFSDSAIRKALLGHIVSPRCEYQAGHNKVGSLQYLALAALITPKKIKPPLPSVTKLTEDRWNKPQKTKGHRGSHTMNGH
# UniProt Q9HC16: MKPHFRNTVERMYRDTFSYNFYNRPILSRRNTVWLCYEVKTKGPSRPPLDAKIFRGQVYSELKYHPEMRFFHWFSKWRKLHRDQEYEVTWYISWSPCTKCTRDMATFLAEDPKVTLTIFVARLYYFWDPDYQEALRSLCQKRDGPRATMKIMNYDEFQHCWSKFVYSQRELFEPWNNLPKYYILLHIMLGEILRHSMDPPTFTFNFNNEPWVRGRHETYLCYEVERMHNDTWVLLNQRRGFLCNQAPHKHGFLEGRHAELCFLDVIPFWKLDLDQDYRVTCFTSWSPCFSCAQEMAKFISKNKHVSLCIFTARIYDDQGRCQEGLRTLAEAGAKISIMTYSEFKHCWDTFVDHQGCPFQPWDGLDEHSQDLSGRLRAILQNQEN
# Among all 260,000 compounds or so, about 1,500 (0.58%) were called active. This list was built around the results that the source calls inconclusive (neither active nor inactive); the mix of calls is not that of the screen.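 Rule for the calls: active = inhibition above a set limit at one or more doses, reproduced on every date tested; inconclusive = results disagree between test dates, or hit never tested in dose response; inactive = the rest.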
# Target: Virion infectivity factor (Human immunodeficiency virus type 1 group M subtype B (isolate BH10)) + Virion infectivity factor (Human immunodeficiency virus type 1 group M subtype B (isolate BRU/LAI)) + Virion infectivity factor (Human immunodeficiency virus type 1 group M subtype B (isolate PCV12)) + Virion infectivity factor (Human immunodeficiency virus type 1 group M subtype B (isolate HXB2)) + DNA dC->dU-editing enzyme APOBEC-3G (Homo sapiens) (UniProt P69720+P69721+P69722+P69723+Q9HC16)
# Experiment: inhibitors of Vif binding to APOBEC3G peptide, primary screen, biochemical, TR-FRET, GST-Vif 1-94, biotin-A3G peptide, dose response retest (AID 1117319);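 note: Vif residues 1-94 fused to GST binding biotinylated APOBEC3G peptide 110-148; 0% = full assay without inhibitor and 100% = GST in place of GST-Vif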
# Details: hits give high values
row,Structure (SMILES),inhibition
1,O=c1cc(O)n(-c2ccccc2)c(=S)[nH]1,inactive: 30.2%
2,COc1cc2c(cc1OC)C(C)N(Cc1ccc3c(c1)OCO3)CC2 (centres undefined),inconclusive: 45.1%
3,COc1ccc2cc(C3=CC(=O)CC(C)(C)C3=O)ccc2c1,inactive: 4.18%
4,COc1ccccc1-n1c(-c2ccco2)n[nH]c1=S,inactive: -2.63%
5,COc1cccc(OC)c1C(=O)N1CCN(Cc2ccccc2C(F)(F)F)CC1,inconclusive: 48.5%
6,CCN(CC)C(=O)[C@H]1C[C@H](CC(=O)NC(C)(C)C)C(=O)N2CCc3c([nH]c4cc(CCC(=O)N(C)C)ccc34)[C@]12C,inactive: -0.23%
7,CSc1oc(-c2ccco2)nc1S(=O)(=O)c1ccc(F)cc1,inactive: 9.31%
8,CC1CCC/C(=N\Nc2ccc(Cl)c(C(=O)O)c2)C1 (centres undefined),inconclusive: 41.7%
9,Cc1c(CNCC(C)c2ccccc2)c(C(=O)O)c(C)n1Cc1ccccc1 (centres undefined),inconclusive: 36.4%
10,Cc1ccc(C(=O)NC(Cc2c[nH]c3ccccc23)C(=O)O)cc1 (centres undefined),inconclusive: 51.4%
11,COc1cc2c(cc1OC)C(c1cccc(OC)c1OC)CC(=O)N2 (centres undefined),inactive: 2.22%
12,COc1ccc(/C(C)=N/NC(=O)CNC(=O)c2cccs2)cc1,inconclusive: 35.6%
13,Cc1c(=O)n(OCc2ccccc2)c2ccccc2[n+]1[O-],inconclusive: 47.4%
14,O=C(O)C1CCCCC1C(=O)NC(c1ccccc1)c1ccccc1 (centres undefined),inconclusive: 39.4%
15,CN(C)c1cccc(C(=O)NCc2ccccc2Cl)c1,inconclusive: 34.4%
16,COc1ccc2cc3c(N)nn(C(=O)Cc4ccccc4OC)c3nc2c1,inconclusive: 61.5%
17,CC(=O)Nc1ccc(-c2cc(C(=O)O)c3ccc(C)cc3n2)cc1,inconclusive: 51.4%
18,CC(/C=C1\SC(=S)N(NC(=O)c2ccncc2)C1=O)=C\c1ccccc1,inconclusive: 36.5%
19,CC(=O)Nc1ccc(NC(=O)c2cc(-n3cnnc3)ccc2Cl)cc1,inconclusive: 45.4%
20,CCSc1nnc(NC(=O)c2c(-c3ccccc3Cl)noc2C)s1,inconclusive: 51.1%

row,Structure (SMILES),inhibition
1,COc1ccccc1Nc1c2c(nc3ccc(N)cc13)CCCC2,inconclusive: 57.4%
2,Nc1nnc(Sc2ccc(Cl)cc2[N+](=O)[O-])s1,inconclusive: 40%
3,CCc1nnc(NC(=O)CCN2C(=O)c3ccccc3C2=O)s1,inconclusive: 55.7%
4,Cc1cc2ncn(C(=O)c3cc(-c4ccccc4)nc4ccccc34)c2cc1C,inconclusive: 33.8%
5,Cc1c(NC(=O)C(C)N2C(=O)C3C4C=CC(C4)C3C2=O)c(=O)n(-c2ccccc2)n1C (centres undefined),inactive: -0.22%
6,Cc1ccc(-c2cccc(C3CC=CC4C3C(=O)N(Cc3ccccc3)C4c3ccc(C(F)(F)F)cc3)c2)cc1 (centres undefined),inconclusive: 46.5%
7,CCOc1ccc(NCC(=O)Nc2ccc(C)cc2C)cc1,inconclusive: 36.6%
8,Cc1cccc(C)c1N1C(=O)CC(N2CCSCC2)C1=O (centres undefined),inconclusive: 36%
9,O=c1c(OC2OC(CO)C(O)C(O)C2O)c(-c2ccc(O)c(O)c2)oc2cc(O)cc(O)c12 (centres undefined),inactive: -4.71%
10,O=C(c1ccc(NC(=S)NCc2ccco2)cc1)N1CCOCC1,inconclusive: 39.9%
11,CNc1nc(Cl)nc(Nc2ccccc2)n1,inconclusive: 61.7%
12,CCCn1c(=O)c(C(=O)NCc2ccccc2)c(O)c2ccccc21,inconclusive: 53.8%
13,Fc1ccc(CN2CCCCCCC2)cc1,inconclusive: 54.8%
14,C=CCC1(C#N)C(=S)NC2=C(C(=O)CC(C)(C)C2)C1c1ccc(Br)cc1 (centres undefined),inconclusive: 35.6%
15,Cc1ccc(/C=N/N2C(=O)C3C(C2=O)C2C=CC3C23CC3)o1 (centres undefined),inconclusive: 58.3%
16,Nc1nc2ccc(C(=O)Nc3ccccc3)cc2s1,inconclusive: 41.1%
17,C/C(=N\NC(=O)CSc1nc2ccccc2o1)c1ccc(O)cc1,inconclusive: 62.9%
18,COc1ccc(NC2SC(=O)N(CC(=O)O)C2=O)cc1 (centres undefined),inconclusive: 28.8%
19,COc1ccccc1NC(=O)Cn1cnc2c(cnn2-c2ccccc2)c1=O,inconclusive: 49.4%
20,O=C1/C(=C/c2cccs2)SC(=S)N1C1CCS(=O)(=O)C1 (centres undefined),inactive: 0.42%

# An excerpt of these results, tab-delimited:
row	Structure (SMILES)	inhibition
2	Nc1nnc(Sc2ccc(Cl)cc2[N+](=O)[O-])s1	inconclusive: 40%
3	CCc1nnc(NC(=O)CCN2C(=O)c3ccccc3C2=O)s1	inconclusive: 55.7%

# Next results follow.

row,Structure (SMILES),inhibition
1,O=C(CSc1nnc2scc(-c3ccc(Cl)cc3)n12)NCc1ccc2c(c1)OCO2,inactive: 31.6%
2,O=c1c2c3c(sc2ncn1/N=C/c1ccco1)CCCC3,inconclusive: 43%
3,O=C(CSc1ccc(-c2ccncc2)nn1)N1CCN(c2ccccc2)CC1,inconclusive: 54.5%
4,COc1ccc(NC(=O)NNC(=O)CCC(=O)Nc2ccccc2Cl)cc1,inconclusive: 62%
5,O=c1c2ccccc2nc2n1C(CBr)CN2 (centres undefined),inconclusive: 39.4%
6,O=C(CSc1nc2ccsc2c(=O)n1Cc1ccc(C(=O)O)cc1)NCC1CCCO1 (centres undefined),inconclusive: 40.8%
7,CN=C1SC(CC(=O)Nc2sc(C)c(C)c2C(=O)OC)C(=O)N1C (centres undefined),inconclusive: 33.4%
8,CCc1cccc2c(C#N)cn(CC(=O)NCCOC)c12,inconclusive: 35.5%
9,CC(OC(=O)CCCc1nc2ccccc2s1)C(N)=O (centres undefined),inconclusive: 56%
10,Cc1occc1C(=O)N/N=C/c1ccccc1[N+](=O)[O-],inconclusive: 55.9%
11,O=C(Nc1ccsc1C(=O)NC1CCCCC1)c1ccccc1,inconclusive: 59.9%
12,CCOC(=O)C(Sc1nn(C)c(=S)s1)C(C)=O (centres undefined),inconclusive: 40.9%
13,COc1ccc(OC)c(NC(=O)C2CC(=O)n3ncnc3N2)c1 (centres undefined),inconclusive: 36%
14,CC(C)NS(=O)(=O)c1ccc(OCC(=O)NCCC2=CCCCC2)cc1,inactive: 2.83%
15,CCCCOc1ccc(C2CCC(C(C)=O)C(C)C2)cc1 (centres undefined),inconclusive: 57.3%
16,O=C(O)c1cc(-c2ccco2)[nH]n1,inconclusive: 45.3%
17,Cc1csc2ncc(C(=O)NCc3ccco3)c(=O)n12,inconclusive: 34.7%
18,CCOc1cc(C2CC(=O)NC(SCC)=C2C#N)ccc1O (centres undefined),inconclusive: 37.8%
19,Cc1c(C(=O)O)oc2ccc(S(=O)(=O)N3CCCCC3C(=O)O)cc12 (centres undefined),inconclusive: 57.1%

# Single values from above:
# Value for O=c1c2c3c(sc2ncn1/N=C/c1ccco1)CCCC3 under inhibition: inconclusive: 43%
# Value for O=C(CSc1ccc(-c2ccncc2)nn1)N1CCN(c2ccccc2)CC1 under inhibition: inconclusive: 54.5%
